Data as given in article PMC3707915.
Results are given in words; binding and its absence hold for the method and conditions named. In cells and extracts the contact can be indirect. Some binding calls cover weakened binding; strength is not graded here.

Amino acid sequences for entries named in this document (tags omitted).
UniProt P53742: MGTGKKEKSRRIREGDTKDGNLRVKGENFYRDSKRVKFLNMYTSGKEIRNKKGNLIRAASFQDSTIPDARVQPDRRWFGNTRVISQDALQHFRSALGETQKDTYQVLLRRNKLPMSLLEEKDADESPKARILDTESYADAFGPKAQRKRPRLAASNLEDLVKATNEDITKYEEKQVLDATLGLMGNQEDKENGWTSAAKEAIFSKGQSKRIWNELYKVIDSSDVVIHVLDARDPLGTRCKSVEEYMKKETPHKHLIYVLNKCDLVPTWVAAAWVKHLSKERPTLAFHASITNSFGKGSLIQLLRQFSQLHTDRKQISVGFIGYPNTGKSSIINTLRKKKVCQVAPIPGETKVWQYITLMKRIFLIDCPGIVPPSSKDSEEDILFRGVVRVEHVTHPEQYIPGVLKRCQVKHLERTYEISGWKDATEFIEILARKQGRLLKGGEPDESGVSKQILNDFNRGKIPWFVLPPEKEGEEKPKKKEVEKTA

T1: Nog1-TAP (S. cerevisiae) (UniProt Q02892)
T1 sequence: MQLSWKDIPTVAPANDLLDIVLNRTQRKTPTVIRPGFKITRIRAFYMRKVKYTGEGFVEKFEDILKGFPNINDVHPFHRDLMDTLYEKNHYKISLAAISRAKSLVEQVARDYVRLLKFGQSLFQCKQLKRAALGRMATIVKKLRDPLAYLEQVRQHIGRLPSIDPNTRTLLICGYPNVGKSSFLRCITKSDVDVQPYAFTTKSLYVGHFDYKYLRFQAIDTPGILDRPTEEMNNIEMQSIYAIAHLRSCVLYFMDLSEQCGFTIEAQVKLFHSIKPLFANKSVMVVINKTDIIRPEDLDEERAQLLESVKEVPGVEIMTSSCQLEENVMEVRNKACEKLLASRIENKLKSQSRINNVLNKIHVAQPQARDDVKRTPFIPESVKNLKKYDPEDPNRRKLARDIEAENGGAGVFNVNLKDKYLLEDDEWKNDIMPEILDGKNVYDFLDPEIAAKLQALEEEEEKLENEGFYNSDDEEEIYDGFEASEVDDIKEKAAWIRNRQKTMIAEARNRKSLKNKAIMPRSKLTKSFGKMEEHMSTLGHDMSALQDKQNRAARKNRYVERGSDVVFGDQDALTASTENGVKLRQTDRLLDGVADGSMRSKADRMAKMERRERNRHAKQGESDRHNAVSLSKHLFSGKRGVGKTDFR


Molecular target: T1, Nog1-TAP (S. cerevisiae)
Assay: co-IP; Nog1-TAP and associated proteins affinity purified on an IgG matrix from extracts of wild type or conditional expression mutants of RPL2, RPL43, RPL21, RPL25 grown in galactose or glucose; purified fractions analysed by SDS-PAGE and western blotting with specific antibodies

Row | binding | Molecule
1 | binds | Nog2 (from UniProt P53742 1-486)
2 | binds | Rsa4 (protein, UniProt P25382 1-515) MSTLIPPPSKKQKKEAQLPREVAIIPKDLPNVSIKFQALDTGDNVGGALRVPGAISEKQLEELLNQLNGTSDDPVPYTFSCTIQGKKASDPVKTIDITDNLYSSLIKPGYNSTEDQITLLYTPRAVFKVKPVTRSSSAIAGHGSTILCSAFAPHTSSRMVTGAGDNTARIWDCDTQTPMHTLKGHYNWVLCVSWSPDGEVIATGSMDNTIRLWDPKSGQCLGDALRGHSKWITSLSWEPIHLVKPGSKPRLASSSKDGTIKIWDTVSRVCQYTMSGHTNSVSCVKWGGQGLLYSGSHDRTVRVWDINSQGRCINILKSHAHWVNHLSLSTDYALRIGAFDHTGKKPSTPEEAQKKALENYEKICKKNGNSEEMMVTASDDYTMFLWNPLKSTKPIARMTGHQKLVNHVAFSPDGRYIVSASFDNSIKLWDGRDGKFISTFRGHVASVYQVAWSSDCRLLVSCSKDTTLKVWDVRTRKLSVDLPGHKDEVYTVDWSVDGKRVCSGGKDKMVRLWTH
